# Assay results published in patent US20030069169A1, “Co-administration of melanocortin receptor agonist and phosphodiesterase inhibitor for treatment of cyclic-AMP associated disorders” (priority 2001, published 2003).
# Protein sequences, listed by entry. Tags and fused reporters are not part of them. Lines headed by an entry give the natural chain unless they say otherwise; changes in a name come on top.
# UniProt Q01726: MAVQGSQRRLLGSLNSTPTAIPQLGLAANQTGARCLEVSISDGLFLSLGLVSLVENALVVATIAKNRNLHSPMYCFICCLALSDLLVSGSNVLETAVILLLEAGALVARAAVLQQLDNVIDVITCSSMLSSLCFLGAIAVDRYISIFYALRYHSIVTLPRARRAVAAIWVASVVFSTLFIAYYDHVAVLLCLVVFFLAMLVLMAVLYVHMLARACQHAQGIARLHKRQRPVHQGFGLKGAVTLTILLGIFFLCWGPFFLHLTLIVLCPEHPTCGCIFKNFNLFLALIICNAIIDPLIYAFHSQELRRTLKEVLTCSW
# For at least one compound, name, drawing or mass did not settle the structure.
# Assays:
# [1] = tested on: LPS-induced TNF-α production; experiment: endotoxin-induced TNF-α accumulation model in Balb/C mice; assay type: in vivo
# Protocol: Melanocortin receptor agonists and cAMP-PDE inhibitors were evaluated for anti-inflammatory activity in vivo by using an endotoxin-induced TNF-α accumulation model in Balb/C mice. Compounds were administered either by s.c injection or co-injected with endotoxin in the tail vein. Both rolipram and melanocortin agonists inhibit endotoxin-induced TNF-α accumulation in this model.
# FIG. 1 reports the results of administration of the compound of Example 11, below, in this model. Example 11 was administered by s.c. injection to five mice for each dose of 1.2 μmol/kg, 3.7 μmol/kg, 11.1 μmol/kg, 33.3 μmol/kg, and 100 μmol/kg. The compound was administered 1 hour prior to the LPS-induced challenge.
# A second experiment was conducted in which the effect of the cAMP-PDE inhibitor rolipram and the melanocortin receptor agonist NDP-MSH was determined.
# The four bar graphs of FIG. 2 reflect the inhibition in LPS-induced TNF-α a production in balb/C mice upon administration of (1) no agent (control); (2) 10 ug/kg ROLIPRAM (3) 2.5 mg/kg NDP-MSH and (4) 10 ug/kg ROLIPRAM in combination with 2.5 mg/kg NDP-MSH. Compounds were co-administered with LPS by tail vein injection. […] Administration of 2.5 mg/kg NDP-MSH inhibited TNF-α levels by 64%.
# human MC-1R = biological target: T1, human MC-1R (Homo sapiens, UniProt Q01726); experiment: MC-1R cAMP SPA assay in HBL cells; assay type: cell-based; conditions: highly selective = more than 1000-fold less potent at MC-3R, MC-4R and/or MC-5R than at MC-1R
# T1 construct: HBL cells, a human melanoma cell line licensed from Prof; G. Ghanem; endogenous in cells; host or cells: HBL human melanoma cells
# Protocol: HBL cells, a human melanoma cell line licensed from Prof. G. Ghanem (Lab. of Oncology & Exp. Surgery, Free University of Brussels, Brussels, Belgium) were used as a source of the human MC-1R. cAMP was measured using the cAMP SPA Direct Screening Assay System from Amersham (RPA 559). 20,000 HBL cells were plated into each well of a half-area 96 well white plate and were used between 16-48 hours after plating. Cells were incubated at 37° C. for 15 minutes in 25 μM IBMX to inhibit phosphodieterase activity. As per kit instructions, Assay Buffer Concentrate was diluted 1 to 50 with dH2O to prepare Assay Buffer (50 mM acetate buffer containing 0.01% sodium azide). Vials containing rabbit anti-succinyl cAMP serum and the tracer, adenosine 3′,5′-cyclic phosphoric acid 2′-0-succinyl-3-[^125I] iodotyrosine methyl ester, were resuspended with 7.5 ml Assay Buffer. SPA anti-rabbit reagent (donkey anti-rabbit IgG coupled to SPA PVT beads) was resuspended with 15 ml Assay Buffer. All reagents were stored at 4° C. after reconstitution. Melanocortin ligands or compounds were prepared in DMSO and added to the IBMX-treated cells as 100×concentrated stocks. […] Plates were subsequently counted for 6 minutes per sample in a TopCount scintillation reader with background subtraction. Data was analyzed in relation to a cAMP standard curve.
structure (smiles),measurement,setting,value
CCCC(=O)C1(c2ccccc2)CCN(C(=O)[C@@H](Cc2ccc(OC)cc2)NC(=O)[C@@H](N)Cc2cncn2C)CC1 [Example 11],inhibition in endotoxin-induced TNF-α production,"[1]; Balb/C mice, s.c. injection, 11.1 umol/kg, 1 hour prior to the LPS-induced challenge",67%
same,maximal inhibition in endotoxin-induced TNF-α production,"[1]; Balb/C mice, s.c. injection, highest dose 100 μmol/kg, 1 hour prior to the LPS-induced challenge",92%
same,"inhibition in endotoxin-induced TNF-α production, dose dependence","[1]; s.c. 1.2, 3.7, 11.1, 33.3 and 100 μmol/kg, five mice per dose",dose dependent response
same,selectivity as agonist of the MC-1R,human MC-1R,highly selective agonist
